The text below walks through data of publication PMC12340889.

For this data set, the system named is DriD(R121E-R122E-P125E-E128R) (Caulobacter crescentus). As to the kind of experiment: fluorescence polarization. The note with it: 100 uM ssDNA effector 5'-TGACTAT-3', complex preformed before alphaCTD titration, FP: 25 mM Tris-HCl pH 7.5, 150 mM NaCl, 2.5% glycerol, temperature not stated, recombinant protein, protein details: N-terminal His (pET15b). (Polarisation of emitted light reports the rotation of a fluorescent probe.)

For at least one entry, the source does not settle the construct or the ends of the probe. At least one verdict was read from the data and is not stated in words by the source.

On to “ATACGACAGTAACTGTCGTAT (double strand) [F-DriD target DNA]”, for which the binding result is “binds”.
